# Read-outs that look alike come from different tables or passages of the source. For part of these data: The name of at least one read-out is uncertain. For part of these data: For at least one compound, name, drawing or mass did not settle the structure.
# Legend:
# [1] = target: T1, Mammalian TrxR (Homo sapiens, UniProt Q16881); details: from literature; cited from earlier work
# T1 sequence (Q16881 1-499 isoform Q16881-5): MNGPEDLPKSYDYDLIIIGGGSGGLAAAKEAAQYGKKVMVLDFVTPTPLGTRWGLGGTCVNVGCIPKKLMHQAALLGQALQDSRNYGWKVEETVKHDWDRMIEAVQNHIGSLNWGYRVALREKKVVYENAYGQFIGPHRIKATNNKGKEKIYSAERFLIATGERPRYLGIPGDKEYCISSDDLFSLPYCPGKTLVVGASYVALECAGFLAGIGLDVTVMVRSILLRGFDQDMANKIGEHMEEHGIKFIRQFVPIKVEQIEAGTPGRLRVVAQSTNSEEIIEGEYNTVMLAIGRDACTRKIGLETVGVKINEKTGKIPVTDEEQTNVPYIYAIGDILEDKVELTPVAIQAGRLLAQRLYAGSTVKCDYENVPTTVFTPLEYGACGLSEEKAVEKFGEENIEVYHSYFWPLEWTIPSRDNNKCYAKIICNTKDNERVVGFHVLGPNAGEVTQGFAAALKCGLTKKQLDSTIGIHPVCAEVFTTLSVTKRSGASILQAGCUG
# [2] = target: T1, Mammalian TrxR; test: Kinetic parameters with mammalian TrxR; type: biochemical
Compound,"kcat/KM, Mammalian TrxR [1] [M⁻¹ s⁻¹]","kcat/KM, Mammalian TrxR [2] [M⁻¹ s⁻¹]"
"O=c1c2ccccc2[se]n1-c1ccccc1 [EbSe 6, 2-phenyl-1,2-benzisoselenazol-3(2H)-one]",3.92e+06,
O=c1c2ccccc2sn1-c1ccccc1 [PZ-25],,9.33e+06
O=C(Nc1ccccc1)c1ccccc1[Se][Se]c1ccccc1C(=O)Nc1ccccc1 [ebselen diselenide],33000,

# — US20190307726A1, “PHARMACEUTICAL FORMULATIONS” (Molecular Defenses Corporation, priority 2015, published 2019)
